These are yes or no findings as the source states them, for the method shown. Some binding calls cover weakened binding; strength is not graded here.
Target: AGO2 (human, endogenous) (human (endogenous in HCT116)) (UniProt Q9UKV8)
Test: SEC; total HCT116 lysates (no fusion protein, T6B or T6B^Mut) on Superose 6 10/300 GL in SEC buffer; fractions TCA-precipitated and immunoblotted for AGO2, TNRC6A, T6B, PABP1

Chains of the proteins cited; added tags and fusions are not shown.
UniProt Q9UKV8: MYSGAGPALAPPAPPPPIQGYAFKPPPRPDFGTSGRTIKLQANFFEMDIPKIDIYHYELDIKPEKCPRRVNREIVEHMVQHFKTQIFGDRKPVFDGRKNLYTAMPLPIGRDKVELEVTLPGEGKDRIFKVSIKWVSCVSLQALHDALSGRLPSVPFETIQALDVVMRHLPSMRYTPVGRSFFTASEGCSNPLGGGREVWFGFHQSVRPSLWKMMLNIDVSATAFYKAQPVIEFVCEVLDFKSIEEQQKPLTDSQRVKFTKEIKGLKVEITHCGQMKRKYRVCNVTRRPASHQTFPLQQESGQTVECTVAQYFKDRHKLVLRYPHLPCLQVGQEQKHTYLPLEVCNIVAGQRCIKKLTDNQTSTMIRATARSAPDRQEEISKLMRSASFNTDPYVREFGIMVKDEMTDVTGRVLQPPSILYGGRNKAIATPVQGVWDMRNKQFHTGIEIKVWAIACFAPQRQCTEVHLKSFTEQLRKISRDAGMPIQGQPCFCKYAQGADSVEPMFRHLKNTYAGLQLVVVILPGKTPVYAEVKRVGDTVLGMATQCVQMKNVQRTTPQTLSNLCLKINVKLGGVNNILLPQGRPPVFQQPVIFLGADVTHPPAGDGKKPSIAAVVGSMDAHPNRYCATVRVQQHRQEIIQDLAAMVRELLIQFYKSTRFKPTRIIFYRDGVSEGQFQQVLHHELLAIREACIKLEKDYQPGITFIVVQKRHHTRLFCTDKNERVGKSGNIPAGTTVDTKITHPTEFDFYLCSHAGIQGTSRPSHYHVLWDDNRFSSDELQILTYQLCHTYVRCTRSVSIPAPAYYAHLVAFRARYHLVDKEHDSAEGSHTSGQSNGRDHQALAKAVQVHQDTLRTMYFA
UniProt Q8NDV7: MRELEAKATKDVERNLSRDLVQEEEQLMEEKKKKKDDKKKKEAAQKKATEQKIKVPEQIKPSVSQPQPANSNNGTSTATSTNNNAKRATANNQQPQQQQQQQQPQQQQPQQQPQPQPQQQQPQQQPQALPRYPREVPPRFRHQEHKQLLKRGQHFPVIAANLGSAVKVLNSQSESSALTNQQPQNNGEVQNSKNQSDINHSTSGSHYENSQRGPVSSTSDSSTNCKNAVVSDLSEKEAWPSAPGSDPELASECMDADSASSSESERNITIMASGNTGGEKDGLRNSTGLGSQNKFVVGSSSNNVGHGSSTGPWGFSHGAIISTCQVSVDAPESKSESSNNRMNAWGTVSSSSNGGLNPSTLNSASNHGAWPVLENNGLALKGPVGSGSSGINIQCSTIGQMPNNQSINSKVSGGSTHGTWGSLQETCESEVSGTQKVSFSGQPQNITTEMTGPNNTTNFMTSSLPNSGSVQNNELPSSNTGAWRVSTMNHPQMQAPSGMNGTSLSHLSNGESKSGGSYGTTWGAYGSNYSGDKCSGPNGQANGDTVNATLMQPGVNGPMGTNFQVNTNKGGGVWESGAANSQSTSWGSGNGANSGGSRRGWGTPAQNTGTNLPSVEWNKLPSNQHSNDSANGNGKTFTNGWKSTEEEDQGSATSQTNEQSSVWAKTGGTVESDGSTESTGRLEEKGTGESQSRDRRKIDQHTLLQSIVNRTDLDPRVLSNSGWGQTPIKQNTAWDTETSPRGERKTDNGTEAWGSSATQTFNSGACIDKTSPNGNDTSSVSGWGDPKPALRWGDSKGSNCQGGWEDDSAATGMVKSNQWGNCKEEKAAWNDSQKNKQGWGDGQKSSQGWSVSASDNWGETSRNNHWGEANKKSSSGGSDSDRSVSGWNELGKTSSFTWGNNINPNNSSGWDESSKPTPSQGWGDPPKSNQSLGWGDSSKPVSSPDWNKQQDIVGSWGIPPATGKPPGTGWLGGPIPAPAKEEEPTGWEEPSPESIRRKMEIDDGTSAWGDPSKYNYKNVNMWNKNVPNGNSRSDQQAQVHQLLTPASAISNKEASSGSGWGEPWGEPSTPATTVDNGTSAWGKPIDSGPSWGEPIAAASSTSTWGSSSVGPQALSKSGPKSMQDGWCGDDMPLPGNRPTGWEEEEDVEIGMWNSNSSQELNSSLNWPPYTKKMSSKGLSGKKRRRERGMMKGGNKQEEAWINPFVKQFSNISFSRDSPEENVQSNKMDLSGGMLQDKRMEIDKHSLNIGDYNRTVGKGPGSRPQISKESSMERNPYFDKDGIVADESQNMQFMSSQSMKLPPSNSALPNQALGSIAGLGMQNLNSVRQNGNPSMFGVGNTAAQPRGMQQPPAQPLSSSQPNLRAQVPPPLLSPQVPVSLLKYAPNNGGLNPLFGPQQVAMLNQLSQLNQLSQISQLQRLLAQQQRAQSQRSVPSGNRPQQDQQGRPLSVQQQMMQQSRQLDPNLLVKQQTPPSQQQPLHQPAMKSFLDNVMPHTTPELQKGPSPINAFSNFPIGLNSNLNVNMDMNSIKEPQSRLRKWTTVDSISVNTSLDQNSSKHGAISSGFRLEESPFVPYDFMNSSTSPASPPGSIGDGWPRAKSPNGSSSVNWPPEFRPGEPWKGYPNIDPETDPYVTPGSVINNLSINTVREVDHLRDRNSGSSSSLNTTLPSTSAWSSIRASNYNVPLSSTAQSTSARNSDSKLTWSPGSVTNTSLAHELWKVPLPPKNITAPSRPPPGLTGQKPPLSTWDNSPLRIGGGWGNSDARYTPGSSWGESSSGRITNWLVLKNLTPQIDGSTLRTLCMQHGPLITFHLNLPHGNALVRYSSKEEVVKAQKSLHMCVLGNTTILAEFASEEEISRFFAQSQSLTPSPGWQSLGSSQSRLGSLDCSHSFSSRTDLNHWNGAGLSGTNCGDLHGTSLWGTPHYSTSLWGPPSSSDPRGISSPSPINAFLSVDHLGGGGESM

- binding: binds
Substance: TNRC6A (human, endogenous) (from UniProt Q8NDV7 1-1962)
